# Experimental data as given in the supplement of paper PMC10689618.
# Structures can show the parent of a compound that is named as a salt. The list shows a part of the results. Many values rest on one well or one pass, so single values are uncertain.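 Primary human fetal astrocytes engulfed labelled rat cortical synaptosomes, measured as a red/green ratio corrected for calcein live-cell signal and scaled to the plate median. Toxicity meant calcein falling over 30%; decreased phagocytosis meant below 70% of median above 5 µM.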
# Experiments:
# [1] = system: Human fetal astrocytes; assay: loss of total cells relative to no-compound high-control median (toxicity); higher = more toxic (fewer cells); conditions: 24 h
# [2] = system: Human fetal astrocytes; assay: synaptosome phagocytosis (pHrodo/calcein intensity ratio) relative to plate median of data wells; higher = more phagocytosis; conditions: 24 h
SMILES,loss of total cells ([1]; 1.39 µM) [%],loss of total cells ([1]; 2.78 µM) [%],loss of total cells ([1]; 5.56 µM) [%],loss of total cells ([1]; 11.11 µM) [%],loss of total cells ([1]; 22.22 µM) [%],synaptosome phagocytosis ([2]; 1.39 µM) [%],synaptosome phagocytosis ([2]; 2.78 µM) [%],synaptosome phagocytosis ([2]; 5.56 µM) [%],synaptosome phagocytosis ([2]; 11.11 µM) [%],synaptosome phagocytosis ([2]; 22.22 µM) [%]
COc1ccc(CCCOC(Cn2ccnc2)c2ccc(OC)cc2)cc1 (stereo not given),2.2,-17.7,1.7,7.3,-10.7,2.4,11.3,27.6,12,3.9
CC1=C(CC(=O)O)c2cc(F)ccc2/C1=C\c1ccc(S(C)(=O)=O)cc1 [Sulindac sulfone],-21.4,-23.1,-16.9,-16.5,-30.5,94.4,88,95.9,94.4,94.1
N=c1ccn2c(n1)O[C@H]1[C@H](O)[C@@H](CO)O[C@H]12 [Ancitabine hydrochloride],-11,-13.8,-25.3,-24.7,-3.4,94.8,115,105,118,94.1
COc1cccc2c1[C@@H]1CN(CCCCn3c(=O)[nH]c4c(sc5ncc(-c6ccccc6)nc54)c3=O)C[C@@H]1CO2 [Fiduxosin hydrochloride],-4.6,-13.7,-3.3,-2.2,0.8,87.4,86.9,114,104,137
C[C@H](CCC(=O)NCCS(=O)(=O)O)[C@H]1CC[C@H]2[C@@H]3[C@H](O)C[C@@H]4C[C@H](O)CC[C@]4(C)[C@H]3C[C@H](O)[C@]12C [Sodium Taurocholate],-22,-3,-19.8,-5.8,-7.1,85.5,92.9,97.6,96.2,94
O=c1[nH]c(=O)c2nc3ccccc3nc2[nH]1 [Alloxazine],-19.8,-7.5,16.1,-2.2,4.1,85.4,93.2,102,71.5,91.9
CC1=C(/C=C/C(C)=C/C=C/C(C)=C/C=C/C=C(C)/C=C/C=C(C)/C=C/C2=C(C)C(=O)[C@@H](O)CC2(C)C)C(C)(C)C[C@H](O)C1=O [Astaxanthin],-5.1,-8.4,-32.7,-15.7,-7.9,115,104,101,95.2,96.7
CC(C)CN(C)c1nc(N)c(C(=O)N=C(N)N)nc1Cl [5-(N-Methyl-N-isobutyl)amiloride],-23.1,-12.9,-17.1,-10.3,16.2,96.5,71.2,86.3,72.7,75.1
O=C(NCC1CCCCN1)c1cc(OCC(F)(F)F)ccc1OCC(F)(F)F (stereo not given) [Flecainide acetate],1.3,-23.1,-15.6,-9.4,-7.2,105,101,106,110,115
CC(N)(C(=O)O)c1ccc(C(=O)O)cc1 (racemic) [(±)-alpha-Methyl-4-carboxyphenylglycine],-19.4,-8.6,12.7,21.9,10.3,98.5,88.4,111,76.8,96.6
"CCCCCCCCCCC/C=C\C(C)(C)/C=C\CCCC(=O)O [7,7-Dimethyl-(5Z,8Z)-eicosadienoic acid]",-2.1,-16.2,7.4,-8.5,-4,128,104,104,122,99.8
O=Nc1c(-c2c(O)[nH]c3ccccc23)[nH]c2ccccc12 [Indirubin-3'-oxime],7.9,0,17.3,7.6,13.6,103,83.1,77.8,63.2,38
Cn1ccc2cc3c(cc21)CCN3C(=O)Nc1cccnc1,-22,-24.9,2.2,-19.5,-4.9,99.6,91.6,87.1,109,102
N[C@@H](Cc1c[nH]cn1)C(=O)O [L-Histidine hydrochloride],-24.7,6,-14,-26.5,-13.6,117,140,105,120,103
CC(Cc1ccc(O)c(O)c1)(NN)C(=O)O (stereo not drawn) [S-(-)-Carbidopa],-5.4,-7.7,-13.2,-0.4,7.2,106,112,91.4,102,96.8
CCOC(=O)c1cnc2c(cnn2CC)c1NN=C(C)C [Etazolate hydrochloride],2.1,-1.7,-16.5,-6.7,-8.8,69.9,80.1,103,93.8,98.2
CCCCCCCCCC(=O)NC(CN1CCOCC1)[C@H](O)c1ccccc1 (mixture of isomers),-2.8,-11.1,-12.9,8,-20.6,110,117,106,90.1,91.5
C#C[C@]1(O)CC[C@H]2[C@@H]3CCC4=Cc5oncc5C[C@]4(C)[C@H]3CC[C@@]21C [Danazol],-2.9,-25.6,-2.5,0.4,2.4,107,126,93,115,97.5

# 4 compounds already listed, sorted by SMILES length, ascending:
SMILES,loss of total cells ([1]; 1.39 µM) [%],loss of total cells ([1]; 2.78 µM) [%],loss of total cells ([1]; 5.56 µM) [%],loss of total cells ([1]; 11.11 µM) [%],loss of total cells ([1]; 22.22 µM) [%],synaptosome phagocytosis ([2]; 1.39 µM) [%],synaptosome phagocytosis ([2]; 2.78 µM) [%],synaptosome phagocytosis ([2]; 5.56 µM) [%],synaptosome phagocytosis ([2]; 11.11 µM) [%],synaptosome phagocytosis ([2]; 22.22 µM) [%]
CCOC(=O)c1cnc2c(cnn2CC)c1NN=C(C)C [Etazolate hydrochloride],2.1,-1.7,-16.5,-6.7,-8.8,69.9,80.1,103,93.8,98.2
Cn1ccc2cc3c(cc21)CCN3C(=O)Nc1cccnc1,-22,-24.9,2.2,-19.5,-4.9,99.6,91.6,87.1,109,102
CC(C)CN(C)c1nc(N)c(C(=O)N=C(N)N)nc1Cl [5-(N-Methyl-N-isobutyl)amiloride],-23.1,-12.9,-17.1,-10.3,16.2,96.5,71.2,86.3,72.7,75.1
CC1=C(/C=C/C(C)=C/C=C/C(C)=C/C=C/C=C(C)/C=C/C=C(C)/C=C/C2=C(C)C(=O)[C@@H](O)CC2(C)C)C(C)(C)C[C@H](O)C1=O [Astaxanthin],-5.1,-8.4,-32.7,-15.7,-7.9,115,104,101,95.2,96.7
